# From PubChem BioAssay AID540275 (National Center for Advancing Translational Sciences (NCATS), 2011)
# The chains behind the UniProt entries cited, without tags or fusion partners.
# UniProt Q8NER1, whole entry, looked up: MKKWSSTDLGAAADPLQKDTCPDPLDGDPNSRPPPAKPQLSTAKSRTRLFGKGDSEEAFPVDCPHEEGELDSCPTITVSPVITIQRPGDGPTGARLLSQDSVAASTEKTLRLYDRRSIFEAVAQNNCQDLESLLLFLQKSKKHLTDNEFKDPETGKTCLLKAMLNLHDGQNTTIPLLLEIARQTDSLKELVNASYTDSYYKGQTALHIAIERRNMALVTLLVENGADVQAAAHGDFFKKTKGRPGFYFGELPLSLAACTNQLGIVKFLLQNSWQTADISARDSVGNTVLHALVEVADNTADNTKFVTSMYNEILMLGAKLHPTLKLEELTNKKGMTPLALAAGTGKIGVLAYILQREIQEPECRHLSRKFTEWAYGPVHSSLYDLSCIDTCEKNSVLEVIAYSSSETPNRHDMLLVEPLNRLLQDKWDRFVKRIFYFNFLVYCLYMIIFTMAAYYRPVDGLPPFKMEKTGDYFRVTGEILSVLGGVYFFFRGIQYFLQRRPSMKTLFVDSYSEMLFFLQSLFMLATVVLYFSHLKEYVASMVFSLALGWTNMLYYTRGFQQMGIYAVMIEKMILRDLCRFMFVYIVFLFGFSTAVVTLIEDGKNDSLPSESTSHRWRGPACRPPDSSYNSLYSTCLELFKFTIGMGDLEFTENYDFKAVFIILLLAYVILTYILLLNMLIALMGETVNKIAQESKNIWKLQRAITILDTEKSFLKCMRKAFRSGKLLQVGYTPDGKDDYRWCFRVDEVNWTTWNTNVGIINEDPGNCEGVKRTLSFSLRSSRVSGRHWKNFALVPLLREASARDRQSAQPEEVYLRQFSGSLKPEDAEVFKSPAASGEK
# Among all 320,000 compounds or so, about 620 (0.19%) were called active. Inconclusive means that the source gave no clear call. Such entries were picked first, then a sample of the others. No stated cut-off is given here; in the data, active means activation above about 80%; inconclusive means between about 30% and that limit; inactive means weaker than that.
# Target: Transient receptor potential cation channel subfamily V member 1 (Homo sapiens) (UniProt Q8NER1)
# Assay: HTS Assay for Compounds that Act as Agonists of the Vanilloid Receptor 1; further: 0% is about no effect
# Conditions: TRPV1-expressing cells, Fluo-8 calcium influx, agonist mode; at 8.33 µM, active compounds read high
# Method in brief: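 Fluo-8 calcium influx in TRPV1-expressing cells, kinetic read (ex 480/em 520 nm). Compound added and read 3 min for agonist activity, followed by capsaicin at EC20 final and 2 min further read for enhancement.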
row,SMILES,activation
1,O=C(CCCc1ccccc1)NCc1ccc2c(c1)OCO2,inconclusive: 36%
2,COc1cc(C(=O)Nc2cc3c(cc2N2CCCCC2)n(C)c(=O)n3C)cc(OC)c1OC,inconclusive: 52.2%
3,Cc1cccc(Nc2nc(-c3ccccn3)cs2)n1,inconclusive: 47.9%
4,CCOC(=O)c1cc(NC(=O)c2cccs2)ccc1N1CCOCC1,inconclusive: 37.4%
5,CC(Oc1ccc(Br)cc1)C(=O)Nc1ccncc1 (stereo unspecified),inconclusive: 39.9%
6,Cc1ccc(NC(=O)c2ccc(CSc3nnnn3C)cc2)cc1,inconclusive: 51.3%
7,CCCc1nc2ccccc2n1CCc1ccccc1,inconclusive: 72.3%
8,CN1/C(=C/c2cccc[n+]2CCO)Sc2ccccc21,inactive: -4.81%
9,COc1ccc(CNC(=O)CSc2nc3ccc(C)cc3[nH]2)cc1,inconclusive: 68.6%
10,N#CC(C#N)=C1C=C2C=C(N3CCCCCC3)CCC2CC1 (stereo unspecified),active: 93.4%
11,Cc1c(C)c2ccc(OCC(=O)c3ccccc3)cc2oc1=O,inactive: 6.16%
12,COc1ccccc1Nc1ncnc2c1oc1ccccc12,inconclusive: 35.5%
13,Cc1ccc(-c2cc(C(F)F)n3ncc(C(=O)N4CCc5ccccc54)c3n2)cc1,inconclusive: 41.6%
14,C(=N\Nc1ccccc1)/c1nc2ccccc2s1,inconclusive: 31.9%
15,COc1ccccc1NCc1ccc([N+](=O)[O-])s1,inactive: -4.22%
16,COc1ccc(-c2nc(N)nc(C)c2-c2ccc(Cl)cc2)c(O)c1,inconclusive: 36.7%
17,N=c1c(C(=O)NCC2CCCO2)cc2c(=O)n3ccccc3nc2n1Cc1ccccc1 (stereo unspecified),inconclusive: 71.8%
18,C/C(=N\NC(=O)c1nnn(-c2nonc2N)c1-c1ccc(Cl)c(Cl)c1)c1ccncc1,inconclusive: 36.2%
19,CCCC12CN3CCN(CC(C3)/C1=N\NC(=O)c1ccc(F)cc1)C2,inconclusive: 48.7%
20,Cc1cc(C(=O)NC2CCCc3c2cnn3-c2ccc(C(C)(C)C)cc2)n[nH]1 (stereo unspecified),inconclusive: 44.8%
21,O=C(O)c1cc(-c2ccc(/C=C3\NC(=O)N(c4ccccc4)C3=O)o2)ccc1Cl,inactive: -1.77%
22,CCc1ccc(OCc2ccc(C(=O)NCc3ccccn3)o2)cc1,inconclusive: 31.5%
23,COc1ccc2nc(NC(=O)CSc3ccccc3)sc2c1,inactive: 1.81%
24,c1ccc(N2CCN(c3nnnn3-c3ccccc3)CC2)cc1,inconclusive: 37.6%
25,CS(=O)(=O)c1[nH]nc(-c2cccc(Cl)c2)c1C#N,inactive: 0.795%
26,Cc1ccccc1N=Nc1c(O)n(C)c2ccccc12,inactive: 5.69%

# Shown with tabs: entries from further up.
row	SMILES	activation
17	N=c1c(C(=O)NCC2CCCO2)cc2c(=O)n3ccccc3nc2n1Cc1ccccc1 (stereo unspecified)	inconclusive: 71.8%
20	Cc1cc(C(=O)NC2CCCc3c2cnn3-c2ccc(C(C)(C)C)cc2)n[nH]1 (stereo unspecified)	inconclusive: 44.8%
